Experimental data as given in US20230187019A1, “METHOD FOR DETERMINING A DRUG COMBINATION VIA A BLOCKING MODEL OF A MULTI-SITE-TARGETED PROTEIN AND APPLICATIONS THEREOF” (National Tsing Hua University, priority 2021, published 2023).
At least one compound was matched to its structure with a doubt left. Some entries repeat one wording, which the source may state once for all of them. Some of these results come from one statement about several compounds together.

Tests used:
shATG4B/HCT116 = assay: Cell viability assay on shATG4B/HCT116 (ATG4B silencing strain); assay type: cell-based, human; conditions: Student's t-test, p-value <0.05
AsPC-1 = assay: Cell viability assay (MTT) on AsPC-1; conditions: 20 μM, AsPC-1, p-value <0.05
HCT116 = assay: Cell viability assay on HCT116; assay type: cell-based, human; conditions: considerable inhibition in either or both of HCT116 and AsPC-1 cell lines (FIG. 16B)

| SMILES | difference of cell viability inhibition between shATG4B/HCT116 (S strain) and shCtrl/HCT116 (C strain) (shATG4B/HCT116) | difference of cell viability inhibition between shATG4B/HCT116 (S strain) and shCtrl/HCT116 (C strain) (shATG4B/HCT116; listed as ponatinib) | inhibition of cell viability, significance (AsPC-1) | cell viability (HCT116) [%] |
| --- | --- | --- | --- | --- |
| Cc1ccc(C(=O)Nc2ccc(CN3CCN(C)CC3)c(C(F)(F)F)c2)cc1C#Cc1cnc2cccnn12 [Ponatinib] | significant differences | statistically significant | statistically significant | – |
| COC(=O)N[C@H](C(=O)N1CCC[C@H]1c1nc(-c2ccc(-c3ccc(-c4c[nH]c([C@@H]5CCCN5C(=O)[C@@H](NC(=O)OC)C(C)C)n4)cc3)cc2)c[nH]1)C(C)C [Daclatasvir] | – | – | statistically significant | – |
| CC[C@@]1(O)C[C@H](O[C@H]2C[C@H](N(C)C)[C@H](O[C@H]3C[C@H](O)[C@H](O[C@H]4CCC(=O)[C@H](C)O4)[C@H](C)O3)[C@H](C)O2)c2c(cc3c(c2O)C(=O)c2c(O)cccc2C3=O)[C@H]1C(=O)OC [Aclacinomycin A] | – | – | – | < 60 |
